# PubChem BioAssay AID1347426 (Functional Genomics Laboratory (NCATS/FGL), 2020)
# About 1,400 (4.5%) of roughly 31,000 sequences were called active.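 The calls were made as follows: active = median seed-adjusted z-score above 1 or below -1; inactive = the rest.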 The list shows a part of the results.
# Assay: Novel Modifiers of Survival Motor Neuron (SMN) Protein: Gene Identification via Genome-wide siRNA Screen;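 also: luminescence tracks full-length SMN protein made from the SMN2 reporter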
# Settings: HEK293T SMN2-luciferase reporter, siRNA knockdown, 72 h; actives lie on both sides
# Method in brief: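 Steps: spot 1 pmol siRNA, add Lipofectamine RNAiMax in serum-free DMEM, seed HEK293T SMN2–luciferase reporter cells; incubate 72 h at 37 °C; add ONE-Glo; normalize luminescence to control siRNA, log10, MAD. Candidates: |MAD| > 1.0.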
row,Sequence,median seed-adjusted z-score
1,GGAUGAACUGAGACGCAAATT against SEMA4C,inactive: -0.334
2,GGAACCUCUGAAUACCAUATT against TBK1,inactive: 0.0578
3,GCAUGACACUGGAGGUCAATT against GAS6,inactive: -0.493
4,CGACUUGUUGUAUAAGUAUTT against DYNC1LI2,inactive: -0.491
5,GGGAGUAUAUUUUGAUGAATT against RARS2,inactive: -0.0247
6,CAAUGACCCUGGUUCACCATT against RNF14,inactive: 0.296
7,GCACCUCUUCAUUCCAUGATT against COQ3,inactive: 0.426
8,CGUGUGACCAGAACACCUATT against ITGAL,inactive: 0.537
9,CAAGGAUACUUAAAUCUCATT against STX19,inactive: 0.143
10,GACUCAGAUUUACACGGAATT against NTNG1,inactive: 0.0823
11,GCAUCUCUUCUAUGCCGAATT against MATN2,inactive: 0.275
12,GGAUGGGCAUGUUGAGAGATT against NUDT9,inactive: 0.277
13,GGUUUGGGAUGGGAAUUGATT against SUPT16H,active: 1.2
14,GAAGUAACACUGAAUAAUATT against FCRL5,inactive: -0.138
15,AGAUGAGGCUCUUUCUGAUTT against TXNDC6,inactive: 0.156
16,GCUUGACCCUUAGACGGAATT against LILRB3,inactive: 0.0304
17,AGAGGACCCAGAAACUUGATT against DNAJC17,inactive: 0.751
18,CACCUAGAGUACGAAAACATT against CHD8,inactive: -0.158
19,GGAAUUCACCAAUGAGACATT against SLC2A11,inactive: 0
20,GCUUCUUCCAGAUAUCAGATT against ZSCAN4,inactive: 0.617
21,GCUCGUAUAGUUUACAUCATT against GOT1L1,inactive: -0.277
22,GCCUUUUACGCAAACAUGUTT against P2RY8,inactive: -0.136

row,Sequence,median seed-adjusted z-score
1,CAGCAUCGCGCAGAACAAATT against VAV2,inactive: 0.975
2,CACUGGGACUAAUAGUUUUTT against COQ2,inactive: -0.0121
3,CGCAUCUCUUAAUCAACAATT against DZIP3,inactive: 0.435
4,CCCAAUAACUCUGUCGAUATT against ATP11C,inactive: 0.102
5,GGUCUUUACUGGAUUCAGATT against SERINC3,inactive: 0.29
6,GAAUCAUGGAGAGUGCAAATT against PPM1E,inactive: -0.00802
7,GGAUGAUCAUGAGCGGCAATT against PHKG1,inactive: -0.153
8,GUAACACCGUUGAAGCUAATT against E2F8,inactive: 0.209
9,GGCAAUUGAUCAAACCGGATT against EMR2,inactive: 0.0569
10,GCGAAGAUCUUGCUCUACATT against CEP135,inactive: -0.2
11,CCUCAGCAGUGCGCAAUCATT against PHF1,inactive: -0.196
12,GGGACUACGUCAACAAGGATT against MAN2A2,inactive: -0.0938
13,CUCUUACCAUGGCCAGGCATT against KRTAP5-1,inactive: 0
14,GAGCUUCCGUGUUAGAUCATT against ZNF221,inactive: -0.536
15,CGCGUUGAAUGAGAACAUATT against PANK1,inactive: -0.329
16,CGCUGACUCUGUAAGAUGATT against RAX2,inactive: 0.345
17,CUGUGGAAAAGAUACCGUATT against EEFSEC,inactive: -0.000421
18,ACAGCUACGAGAUGCGAAATT against CAPN3,inactive: 0.0426
19,GCAUAACUCGAAACACCUUTT against POLR2J,inactive: 0.0437
20,CAAGAGUAUUUAACUAGCATT against SMARCC1,inactive: -0.0304
21,GGAUAAUGUUCGUUGCUCATT against CD5L,inactive: 0
22,GACUGAAGCUUCGUUAGUATT against POLG2,inactive: 0

# Laid out differently: results already given
row | Sequence | median seed-adjusted z-score
11 | GCAUCUCUUCUAUGCCGAATT against MATN2 | inactive: 0.275
12 | GGAUGGGCAUGUUGAGAGATT against NUDT9 | inactive: 0.277
13 | GGUUUGGGAUGGGAAUUGATT against SUPT16H | active: 1.2
14 | GAAGUAACACUGAAUAAUATT against FCRL5 | inactive: -0.138
15 | AGAUGAGGCUCUUUCUGAUTT against TXNDC6 | inactive: 0.156
16 | GCUUGACCCUUAGACGGAATT against LILRB3 | inactive: 0.0304
17 | AGAGGACCCAGAAACUUGATT against DNAJC17 | inactive: 0.751
18 | CACCUAGAGUACGAAAACATT against CHD8 | inactive: -0.158
19 | GGAAUUCACCAAUGAGACATT against SLC2A11 | inactive: 0
20 | GCUUCUUCCAGAUAUCAGATT against ZSCAN4 | inactive: 0.617
21 | GCUCGUAUAGUUUACAUCATT against GOT1L1 | inactive: -0.277
22 | GCCUUUUACGCAAACAUGUTT against P2RY8 | inactive: -0.136
1 | CAGCAUCGCGCAGAACAAATT against VAV2 | inactive: 0.975
2 | CACUGGGACUAAUAGUUUUTT against COQ2 | inactive: -0.0121
3 | CGCAUCUCUUAAUCAACAATT against DZIP3 | inactive: 0.435
4 | CCCAAUAACUCUGUCGAUATT against ATP11C | inactive: 0.102
5 | GGUCUUUACUGGAUUCAGATT against SERINC3 | inactive: 0.29
6 | GAAUCAUGGAGAGUGCAAATT against PPM1E | inactive: -0.00802
8 | GUAACACCGUUGAAGCUAATT against E2F8 | inactive: 0.209
9 | GGCAAUUGAUCAAACCGGATT against EMR2 | inactive: 0.0569
11 | CCUCAGCAGUGCGCAAUCATT against PHF1 | inactive: -0.196
12 | GGGACUACGUCAACAAGGATT against MAN2A2 | inactive: -0.0938
13 | CUCUUACCAUGGCCAGGCATT against KRTAP5-1 | inactive: 0
14 | GAGCUUCCGUGUUAGAUCATT against ZNF221 | inactive: -0.536
15 | CGCGUUGAAUGAGAACAUATT against PANK1 | inactive: -0.329
16 | CGCUGACUCUGUAAGAUGATT against RAX2 | inactive: 0.345
17 | CUGUGGAAAAGAUACCGUATT against EEFSEC | inactive: -0.000421
18 | ACAGCUACGAGAUGCGAAATT against CAPN3 | inactive: 0.0426
19 | GCAUAACUCGAAACACCUUTT against POLR2J | inactive: 0.0437
20 | CAAGAGUAUUUAACUAGCATT against SMARCC1 | inactive: -0.0304
21 | GGAUAAUGUUCGUUGCUCATT against CD5L | inactive: 0
22 | GACUGAAGCUUCGUUAGUATT against POLG2 | inactive: 0

# (cont.)

row,Sequence,median seed-adjusted z-score
1,GCCUCCCAGAUGAUCGUCATT against SLC6A13,inactive: 0.267
2,GCAUCAACGGCAUCUGUAATT against ADAMTS7,inactive: 0.146
3,CUACCUACAUCGGCCUUAATT against SMPD1,inactive: 0.353
4,GCUACUCCCUGAUUCAGAATT against SLC2A7,inactive: -0.0337
5,GCAUAGCUGUCCAAGUUAATT against UBA6,inactive: 0.0251
6,GAGAUUAUCGGAUACGGUUTT against PPFIA2,inactive: 0.176
7,UGGGCAACAUCUACACGCATT against PAQR4,inactive: 0.316
8,CCCAGUCAAUCAAAGGAAATT against CD3G,inactive: -0.0274
9,CAUCCAUGGUUAAGUCAUATT against PTK6,inactive: -0.295
10,CCAAGGUUCAGUUCUUAAATT against CHI3L2,inactive: 0.374
11,GGACCUCGAUGACUUUAGATT against PRDM1,inactive: -0.16
12,CAAGCAAACGGAAGACCCATT against LTBR,inactive: 0
13,GCCUGAAUUCCACUGCGGATT against TNFRSF18,inactive: 0.154
14,GGAUAUCACAGGACAAGGATT against ZAK,inactive: -0.113
15,GCUCUUUGUUCAAUGCCUATT against CHRAC1,inactive: 0.193
16,GGAAUAUGCCUGCCUGAAATT against NR0B2,inactive: -0.374
17,GAACCAAGUUUGAGACGGATT against KRT19,inactive: 0.0661
18,CCACCACUGUCAGUGACGATT against EIF3G,inactive: -0.198
19,CAACCUCACUGACCGGCAATT against HOXD11,inactive: -0.185
20,CCCUAAAGAUCCAACUGAATT against RASGRP1,inactive: -0.392
21,GACUUGUGAUCAGUGUAAATT against BNC2,inactive: -0.0556
22,GGAGCUGAGGAAUUGCGAATT against HSD17B2,inactive: 0.521

row,Sequence,median seed-adjusted z-score
1,GGUUCAGUCAACUUCUUCATT against ANGPTL6,inactive: 0
2,CCUCUGUCCUGACCGAGAATT against HBZ,inactive: -0.0054
3,CACUUAUGCUGCAAUAUAUTT against TRIM49,inactive: 0.0648
4,GGAGGUCAAUUUGAACGCATT against DDX21,inactive: -0.251
5,GUUUCUUGAUUGGACAAAATT against LDHAL6B,inactive: -0.192
6,GAAUACACGGAAUCGAUUUTT against ARHGAP10,inactive: -0.458
7,GGCAGAAUCAUGAAUGUCATT against ATP5B,inactive: 0.393
8,GCAAGGAGCUAGAGCCUUUTT against MOBKL2B,inactive: -0.613
9,GCAAUAUUGUUCAACAGCATT against USP48,inactive: 0.397
10,AGAUCAGGAUGAUCGAGAATT against BGN,inactive: 0.376
11,CGACAUCUCACUCAUGAAATT against SF3A3,active: -2.1
12,AGUGUAAGGUUUGUCCGAATT against ZSCAN22,inactive: 0.277
13,AGAUCAACCUGCUUCCCGATT against PDK2,inactive: -0.481
14,GCAUACAGACUGACUCCUATT against EIF3H,inactive: 0.449
15,GCCGAUAACUUUGAAUACATT against PGM1,inactive: 0.136
16,GCAGCUUCCUCCUCGAGUATT against SNX18,inactive: 0
17,GAAAAUCACCAAAACAUACTT against WHSC1,active: 1.17
18,CGUGAACCCAAAGUAUAUUTT against LOXL1,inactive: 0.0435
19,CUCACUUCGGACUCACUUATT against FOXO3,inactive: -0.712
20,GCACGACUUUGUACUCAGATT against HES5,inactive: -0.00853
21,GGAGAAUUCGUGUUGCAAATT against PLXNC1,inactive: -0.0792
22,GGGCAAAGCGAAACGCAAATT against ZNF536,inactive: -0.295

row,Sequence,median seed-adjusted z-score
1,GAGUCAGGAUUCUACCAGATT against PCDHGA12,inactive: 0.561
2,CCACGUCUCCAUUUCUUUATT against TUBB,inactive: -0.307
3,GACUCCUACAUGUCCAUUATT against DNM3,inactive: 0
4,CGUAUAUGGUGGAGCAUGATT against WNK2,inactive: 0.212
5,GACCUUCGAUGAACCGGAATT against GRAP2,inactive: 0.296
6,UGAUAAGGAUGGUCCAGAUTT against FOXR1,inactive: -0.153
7,CAAAAGAGCUUACAAUUCATT against PSTPIP2,inactive: 0.0136
8,CAAUCCUGUAUCUACCGUATT against OVCH1,inactive: 0.0211
9,CCAGAAAUCUUCCACAGAATT against TOP3A,inactive: 0.474
10,CACUUUCCGGCAUAACUUUTT against MAL,inactive: 0.0733
11,GGAAAUUGUUCAGCGAUUATT against SIPA1L2,inactive: -0.573
12,GCUUGAGGCACAUAACAAATT against ZNF385A,inactive: -0.968
13,AGACAGACCGCCAAAUAAATT against KLF1,inactive: 0
14,CGGGUACUGCUACACCUUUTT against SLC22A8,inactive: 0.175
15,AGAAGUACGUGACCGAGUATT against PRDM15,inactive: 0.258
16,GGCCUGAACAAGAACAUCATT against CNTF,inactive: 0.3
17,CGGAUUUCUUUGAACUAUUTT against TCERG1,inactive: 0.415
18,GAGUGAUCUUUCUAGCAAATT against KTN1,inactive: -0.233
19,CCCAGAUUGCAUACUCUAATT against ACP5,inactive: 0.353
